The structures appear in SMILES notation.

Sequences of proteins named here, by UniProt entry; tags and fusion partners are left off.
UniProt Q9Y463, whole entry: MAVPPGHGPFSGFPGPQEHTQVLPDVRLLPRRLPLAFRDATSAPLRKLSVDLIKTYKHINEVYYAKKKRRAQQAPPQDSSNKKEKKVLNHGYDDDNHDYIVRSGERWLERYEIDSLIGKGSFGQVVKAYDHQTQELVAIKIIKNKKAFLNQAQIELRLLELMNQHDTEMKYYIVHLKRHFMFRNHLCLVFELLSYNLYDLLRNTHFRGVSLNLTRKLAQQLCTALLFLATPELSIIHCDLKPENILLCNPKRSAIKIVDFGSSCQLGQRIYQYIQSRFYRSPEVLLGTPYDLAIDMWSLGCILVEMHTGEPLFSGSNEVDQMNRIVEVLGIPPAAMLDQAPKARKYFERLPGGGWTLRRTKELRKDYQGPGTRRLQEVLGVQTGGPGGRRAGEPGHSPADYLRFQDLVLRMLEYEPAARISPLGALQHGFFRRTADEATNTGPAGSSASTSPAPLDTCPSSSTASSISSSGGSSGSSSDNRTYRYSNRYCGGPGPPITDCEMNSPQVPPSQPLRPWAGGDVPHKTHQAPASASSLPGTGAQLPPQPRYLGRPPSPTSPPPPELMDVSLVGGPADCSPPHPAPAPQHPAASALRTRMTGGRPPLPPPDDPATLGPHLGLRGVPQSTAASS

Consider one compound from ChEMBL document CHEMBL4007420, “Structural Optimization and Pharmacological Evaluation of Inhibitors Targeting Dual-Specificity Tyrosine Phosphorylation-Regulated Kinases (DYRK) and CDC-like kinases (CLK) in Glioblastoma” (J Med Chem, 2017).

The assay concerns the target Dual specificity tyrosine-phosphorylation-regulated kinase 1B (Homo sapiens, UniProt Q9Y463). The assay can be described thus: Inhibition of recombinant GST-tagged DYRK1B (unknown origin) expressed in Escherichia coli using DYRKtide as substrate after 5 mins in presence of [gamma-33P]ATP by liquid scintillation counting.

For orientation: IC50 means the concentration at which inhibition is half-maximal. As to `COc1ccc2c(c1)[nH]c1c(C)nccc12` [HARMINE], the IC50 is 160 nM.
